Test results: US20190330338A1 (UNIVERSITY OF UTAH RESEARCH FOUNDATION, published 2019)
Positions count from the first letter of the chain named. These are yes or no findings as the source states them, for the method shown. Some entries that bind do so weakly or less than the wild type.

T1: recombinant CD229 (human) (UniProt Q9HBG7)
T1 sequence (looked up): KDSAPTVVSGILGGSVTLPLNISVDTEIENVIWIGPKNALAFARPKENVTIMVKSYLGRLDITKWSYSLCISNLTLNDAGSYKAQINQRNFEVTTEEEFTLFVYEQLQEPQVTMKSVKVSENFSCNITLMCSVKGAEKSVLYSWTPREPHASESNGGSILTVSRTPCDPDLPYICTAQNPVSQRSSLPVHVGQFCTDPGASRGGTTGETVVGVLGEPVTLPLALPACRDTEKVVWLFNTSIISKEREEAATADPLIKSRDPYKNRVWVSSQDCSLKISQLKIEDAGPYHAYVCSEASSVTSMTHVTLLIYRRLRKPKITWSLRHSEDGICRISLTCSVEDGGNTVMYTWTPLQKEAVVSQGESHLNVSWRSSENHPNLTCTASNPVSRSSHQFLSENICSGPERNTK

B1: anti-CD229 CAR construct, Clone 1D1 (protein, not shown: large carriers)
chain: EVQLVQSGAEVKKPGASVKVSCKASGYTFTSYGISWVRQAPGQGLEWMGWISAYNGNTNYAQKLQGRVTMTTDTSTSTAYMELRSLRSDDTTVYYCARSPSTVVTPFSDYWGQGTLVTVSSLEGGGGSGGGGSGGGASNFMLTQPHSVSESPGKTVTISCTGSSGSIASNYVQWYQQRPGSSPTTVIYEDNQRPSGVPDRFSGSIDSSSNSASLTISGLKTEDEADYYCQSYDGSNPVVFGGGTQLTVLG
B2: anti-CD229 CAR construct, Clone 1E4 (protein, not shown: large carriers)
chain: QVQLVESGAEVKKPGASVKVSCKASGYTFTAYYIHWLRQAPGQDLEWMGWIDPNSGGTNYAQKFQGRVTMTRDTSISTAYMELSRLRSDDTAVYYCARGWNYELDYWGQGTLVTVSSLEGGGGSGGGGSGGGASNFMLTQPHSVSGSPGKTVTISCTRSSGYIASNYVQWYQQRPGSAPTTVIYEDNQRPSGVPDRFSGSIDSSSNSASLTISGLKTEDEADYYCQSYDSSNQGVFGGGTKLTVLV
B3: anti-CD229 CAR construct, Clone 1E10 (protein, not shown: large carriers)
chain: QVQLVESGAEVKKPGASVKVSCKASGYTFTAYYIHWLRQAPGQDLEWMGWIDPNSGGTNYAQKFQGRVTMTRDTSISTAYMELSRLRSDDTAVYYCARDWNYELDYWGQGTLVTVSSLEGGGGSGGGGSGGGASNFMLTQPHSVSGSPGKTVTISCTRSSGYIASNYVQWYQQRPGSSPTTLIYDDDQRPSGVPDRFSGSIDRSSNSASLTISGLKTEDEGDYYCQSYDSSLVIFGGGTKVTVLG
B4: anti-CD229 CAR construct, Clone 1E12 (protein, not shown: large carriers)
chain: QITLKESGPTLVKPTQTLTLTCTFSGFSLSTSGVGVGWIRQPPGKALEWLALIYWNDDKRYSPSLKSRLTITKDTSKNQVVLTMTNMDPVDTATYYCAHISSSGGTEVQDYWGQGTLVTVSSLEGGGGSGGGGSGGGASDIQMTQSPSSLSASVGDRVTITCRASQSIGSSLHWYQQKPGKAPKFLIYDASSLESGVPSRFSGSGSGTEFTLTISSLQPDDCATYYCQQYNSYPLTFGGGTKLEIKR
B5: anti-CD229 CAR construct, Clone 2C5 (protein, not shown: large carriers)
chain: QVQLVESGAEVKKPGASVKVSCKASGYTFTAYYIHWLRQAPGQDLEWMGWIDPNSGGTNYAQKFQGRVTMTRDTSISTAYMELSRLRSDDTAVYYCARDWNYELDYWGRGTLVTVSPLEGGGGSGGGGSGGGASNFMLTQPHSVSGSPGKAVTISCTRSSGNIARSFVQWYQQRPGSAPTAVIYEDNRRPSGVPDRFSGSFDSSSNSASLTISGLKTEDEADYYCQSYDSSNHVVFGGGTKVTVLG
B6: anti-CD229 CAR construct, Clone 2C11 (protein, not shown: large carriers)
chain: B3 chain with S231T, L232T, V233E, I234V, G237T, V241L
B7: anti-CD229 CAR construct, Clone 2D1 (protein, not shown: large carriers)
chain: QITLKESGPTLVKPTQTLTLTCTFSGFSLSTSGVGVGWIRQPPGKALEWLALIYWNDDKRYSPSLKSRLTITKDTSKNQVVLTMTNMDPVDTATYYCAQAKPYSSDFDIWGQGTMVTVSSLEGGGGSGGGGSGGGASNFMLTQPHSVSESPGKTVTISCTGSSGSIASNYVQWYQQRPGSSPTTVIYEDNQRPSGVPDRFSGSIDSSSNSASLTISGLKTEDEADYYCQSYDSSNQGVFGGGTQLTVLG
B8: anti-CD229 CAR construct, Clone 2E1 (protein, not shown: large carriers)
chain: QITLKESGPTLVKPTQTLTLTCTFSGFSLSTSGVGVGWIRQPPGKALEWLALIYWNDDKRYSPSLKSRLTITKDTSKNQVVLTMTNMDPVDTATYYCAQAKPYSSDFDIWGQGTMVTVSSLEGGGGSGGGGSGGGASDIQMTQSPSSLSASVGDRVTISCQASQDISNYLNWYQQKPGKAPKLLIYAASSLQSGVPSRFSGSGSGTDFTLTISSLQPEDFATYYCLQDYNYPWTFGQGTKVEIKR
B9: anti-CD229 CAR construct, Clone 1B11 (protein, not shown: large carriers)
chain: QMQLVESGAEVKKPGSSVKVSCKASGGTFSSYAISWVRQAPGQGLEWMGGIIPIFGTANYAQKFQGRVTITADKSTSTAYMELSSLRSEDTAVYYCAADMELRDYYYGMDVWGQGTLVTVSSLEGGGGSGGGGSGGGASQSGLTQPRSVSGSPGQSVTISCTGTSSDVGGYNYVSWYQQHPGKAPKLMIYDVSKRPSGVPDRFSGSKSGNTASLTVSGLQAEDEADYYCSSYAGSNTFVFGSGTKLTVLG
B10: anti-CD229 CAR construct, Clone 1C8 (protein, not shown: large carriers)
chain: QVQLLESGGGVAQPGRSLKLSCAASGFTFSSYGMHWVRQAPGEGLEWVAVISYDGSNKYYADSVKGRFTISRDNSKNTLYLQMNSLRAEDTAVYYCAKDTCTNGVCYPDYWGQGTLVTVSSLEGGGGSGGGGSGGGASDIVMTQSPATLSVSPGERATLSCRASQSVGSSLAWYQQKPGQAPRLLIYGGSVRATGIPARFSGSGSGTEFTLTISSLQSEDFAAYYCQQYNSYPLTFGGGTKLEIKR

target: T1, recombinant CD229 (human); assay: flow cytometry of 293T cells expressing the CAR, stained with APC-labeled recombinant CD229

binding, binds:
B1, B2, B3, B4, B5, B6, B7, B8, B9, B10
